Reference: PMC4048286
No constants are given. Whether binding was seen depends on the method and setting. In cells and extracts the contact can be indirect. Some binding calls cover weakened binding; strength is not graded here. Where a sequence is shown, tags or fusion partners need not be part of it.

T1: NcsA with a C-terminal StrepII-tag (Hfx. volcanii HVO_0580, Tuc1/Ncs6 homolog) (Haloferax volcanii) (UniProt D4GSH6)
T1 sequence: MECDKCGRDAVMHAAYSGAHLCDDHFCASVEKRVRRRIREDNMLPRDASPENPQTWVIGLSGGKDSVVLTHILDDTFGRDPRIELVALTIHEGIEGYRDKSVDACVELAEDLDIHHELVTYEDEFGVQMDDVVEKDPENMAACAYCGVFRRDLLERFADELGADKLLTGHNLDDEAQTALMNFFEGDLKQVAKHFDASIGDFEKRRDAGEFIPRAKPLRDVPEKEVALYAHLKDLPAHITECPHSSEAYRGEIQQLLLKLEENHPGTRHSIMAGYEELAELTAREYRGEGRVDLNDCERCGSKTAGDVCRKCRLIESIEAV


Target: T1, NcsA with a C-terminal StrepII-tag (Hfx. volcanii HVO_0580, Tuc1/Ncs6 homolog) (Haloferax volcanii)
Assay: pull-down; NcsA-StrepII held on Strep-Tactin from soluble extract of Hfx. volcanii strains (ΔncsA, H26, ΔubaA), Tris-salt buffer (20 mM Tris, 2 M NaCl, pH 8.0), eluted with 2.5 mM D-desthiobiotin; fractions analysed by reducing SDS-PAGE and immunoblot (α-Flag, α-StrepII, α-UbaA, α-PAN-A/1) or Coomassie stain; 1 L or 50 ml cultures

Row | Binder | binding
1 | UbaA (ubiquitin-activating E1 enzyme homolog of archaea) (enzyme, UniProt D4GSF3 1-270) MTLSLDATQLDRYSRHIIMDEVGPEGQGRLLSSRVVVVGAGGLGAPAIQYLAAVGVGELVVVDDDVVERSNLQRQVVHCDDDVGTPKAESAAAFVRGLNPDVSVEPVEARVDKSNVHEVVAGSDVVVDASDNFPTRYLLNDVCRFEGIPLVHGAIYKFEGQATTLVPDGPCYRCLFPEAPEPGTVPDCATTGVLGVLPGTVGCIQATEAMKLLLDEGEALDGRLLFYDAMDMTFETVPYRTNPDCPVCGEGGVDSIEDIDYVESCAISLD | binds
2 | Proteasome-activating nucleotidase A/1 (PAN-A/1) (protein, UniProt D4GUJ7 1-406) MMTDTVDDVDLPYDKDSASQQEKITALQERLEVLETQNEEMRDKLLDTNAENNKYQQKLERLTHENKKLKQSPLFVATVQEITDEGVIIKQHGNNQEALTEVTDEMREELEPDARVAVNNSLSIVKRLDKETDVRARVMQVEHSPDVTYEDIGGLEEQMQEVRETVEMPLDRPEMFAEVGIDPPSGVLLYGPPGTGKTMLAKAVANQTNASFIKMAGSELVHKFIGEGAKLVRDLFEVARENEPAVIFIDEIDAIASKRTDSKTSGDAEVQRTMMQLLAEMDGFDERGNIRIIAATNRFDMLDPAILRPGRFDRLIEVPKPNEDGREIIFQIHTRKMNVSDDVDFVELAEMADNASGADIKAVCTEAGMFAIRDDRTEIFMQDFVDAWEKIQQEASDETEVSRAFA | binds

Results, then the binder that gave them:

Row | binding | Binder
3 | binds | N-terminal Flag-tagged SAMP2 (small archaeal modifier protein 2) (protein, UniProt D4GZE7 1-66) MNVTVEVVGEETSEVAVDDDGTYADLVRAVDLSPHEVTVLVDGRPVPEDQSVEVDRVKVLRLIKGG
4 | no binding | N-terminal Flag-tagged SAMP1 (small archaeal modifier protein 1) (protein, UniProt D4GUF6 1-87) MEWKLFADLAEVAGSRTVRVDVDGDATVGDALDALVGAHPALESRVFGDDGELYDHINVLRNGEAAALGEATAAGDELALFPPVSGG
